Our source for the IC50 and relative colony count values is patent US20050164976A1, “Combination of a cdk inhibitor and 5-fu for the tratment of cancer” (Cyclacel Limited, priority 2002, published 2005).

Structures are written as SMILES.

Experiment [1] relates to HT29 cells. The experiment can be described thus: cells. The note with it: Homo sapiens, HT-29. From the text: Cells were washed in media to inactivate trypsin before reseeding or analysis.
The subject of experiment [2] is human mammary cancer xenograft MAXF 857. Conditions: 10 μM roscovitine alone.
Experiment [3] deals with MCF7 cells. The experiment can be described thus: cells. Conditions: Homo sapiens. On the procedure:
MCF7 cells were seeded at 3,000/well in 96 well plates. Cell were allowed to settle overnight, and medium replaced with drug-containing medium the next day. Nine different drug treatments were tested, in triplicate, in each plate.

With `CC[C@H](CO)Nc1nc(NCc2ccccc2)c2ncn(C(C)C)c2n1` [roscovitine, 6-benzylamino-2-[(R)-1-ethyl-2-hydroxyethylamino]-9-isopropylpurine], the IC50 was found to be 20 µM in experiment [1] and 10 µM in experiment [3]. In experiment [2], the relative colony count is on record as 77%.
